From the supplement of paper PMC12819154, “High-throughput peptide-centric local stability assay extends protein–ligand identification to membrane proteins, tissues and bacteria” (Nature Structural & Molecular Biology, 2025)
The other results are listed elsewhere or left out. Most entries show no effect beyond the scatter of the controls.

Chains of the proteins cited; added tags and fusions are not shown. Lines headed by an entry give the natural chain unless they say otherwise; changes in a name come on top.
UniProt Q9NSA3: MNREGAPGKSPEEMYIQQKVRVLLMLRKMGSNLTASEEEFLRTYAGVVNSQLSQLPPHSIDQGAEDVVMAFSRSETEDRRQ
UniProt Q9NWS6: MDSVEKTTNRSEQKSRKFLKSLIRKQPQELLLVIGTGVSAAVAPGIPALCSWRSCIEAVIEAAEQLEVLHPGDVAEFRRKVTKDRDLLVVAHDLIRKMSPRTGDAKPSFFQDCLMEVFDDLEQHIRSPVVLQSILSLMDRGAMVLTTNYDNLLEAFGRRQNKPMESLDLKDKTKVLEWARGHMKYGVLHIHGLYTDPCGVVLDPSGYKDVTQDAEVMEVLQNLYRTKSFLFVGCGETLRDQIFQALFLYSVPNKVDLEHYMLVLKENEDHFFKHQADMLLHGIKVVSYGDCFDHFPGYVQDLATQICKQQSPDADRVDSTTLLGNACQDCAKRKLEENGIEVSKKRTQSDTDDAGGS
UniProt Q9NUD5: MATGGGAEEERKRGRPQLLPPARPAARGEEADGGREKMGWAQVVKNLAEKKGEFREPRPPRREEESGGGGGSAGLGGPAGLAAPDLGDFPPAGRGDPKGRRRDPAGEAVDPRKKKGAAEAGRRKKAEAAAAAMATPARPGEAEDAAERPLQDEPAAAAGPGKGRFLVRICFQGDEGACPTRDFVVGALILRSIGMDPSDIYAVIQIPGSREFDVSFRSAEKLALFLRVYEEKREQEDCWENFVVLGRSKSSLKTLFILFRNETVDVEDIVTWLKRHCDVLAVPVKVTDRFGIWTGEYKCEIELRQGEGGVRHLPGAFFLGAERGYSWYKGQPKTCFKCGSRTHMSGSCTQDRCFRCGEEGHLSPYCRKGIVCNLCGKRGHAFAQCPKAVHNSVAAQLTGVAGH
UniProt Q9NWH9: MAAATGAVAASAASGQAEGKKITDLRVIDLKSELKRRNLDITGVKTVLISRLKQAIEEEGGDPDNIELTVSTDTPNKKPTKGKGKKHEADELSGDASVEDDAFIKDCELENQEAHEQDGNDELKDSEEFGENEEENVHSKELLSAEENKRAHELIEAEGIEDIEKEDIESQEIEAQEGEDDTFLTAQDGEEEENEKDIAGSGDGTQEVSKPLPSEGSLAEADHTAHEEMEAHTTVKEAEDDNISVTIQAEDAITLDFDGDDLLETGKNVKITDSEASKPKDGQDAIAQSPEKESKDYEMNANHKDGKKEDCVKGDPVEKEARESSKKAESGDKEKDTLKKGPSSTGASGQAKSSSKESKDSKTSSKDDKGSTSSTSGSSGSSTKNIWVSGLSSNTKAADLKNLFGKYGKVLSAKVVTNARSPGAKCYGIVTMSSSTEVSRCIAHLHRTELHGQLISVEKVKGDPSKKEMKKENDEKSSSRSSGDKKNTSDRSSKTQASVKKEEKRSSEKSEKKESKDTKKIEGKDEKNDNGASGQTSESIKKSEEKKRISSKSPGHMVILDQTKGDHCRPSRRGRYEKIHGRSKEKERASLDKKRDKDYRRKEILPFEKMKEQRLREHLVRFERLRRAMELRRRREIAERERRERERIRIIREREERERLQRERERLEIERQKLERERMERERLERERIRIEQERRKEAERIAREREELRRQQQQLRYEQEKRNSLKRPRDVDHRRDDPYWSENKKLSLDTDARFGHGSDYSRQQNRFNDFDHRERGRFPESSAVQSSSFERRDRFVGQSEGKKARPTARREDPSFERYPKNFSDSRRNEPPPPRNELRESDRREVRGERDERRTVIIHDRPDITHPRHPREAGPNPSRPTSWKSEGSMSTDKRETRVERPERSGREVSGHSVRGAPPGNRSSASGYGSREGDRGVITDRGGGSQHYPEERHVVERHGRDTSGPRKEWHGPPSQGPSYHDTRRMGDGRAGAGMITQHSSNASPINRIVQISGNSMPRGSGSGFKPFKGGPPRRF
UniProt Q9NPA3, whole entry: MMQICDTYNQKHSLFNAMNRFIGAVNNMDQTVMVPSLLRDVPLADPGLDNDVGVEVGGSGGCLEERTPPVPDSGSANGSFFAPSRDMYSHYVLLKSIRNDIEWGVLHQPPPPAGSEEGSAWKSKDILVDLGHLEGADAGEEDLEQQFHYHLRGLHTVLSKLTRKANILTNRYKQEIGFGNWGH
UniProt Q9NRY4: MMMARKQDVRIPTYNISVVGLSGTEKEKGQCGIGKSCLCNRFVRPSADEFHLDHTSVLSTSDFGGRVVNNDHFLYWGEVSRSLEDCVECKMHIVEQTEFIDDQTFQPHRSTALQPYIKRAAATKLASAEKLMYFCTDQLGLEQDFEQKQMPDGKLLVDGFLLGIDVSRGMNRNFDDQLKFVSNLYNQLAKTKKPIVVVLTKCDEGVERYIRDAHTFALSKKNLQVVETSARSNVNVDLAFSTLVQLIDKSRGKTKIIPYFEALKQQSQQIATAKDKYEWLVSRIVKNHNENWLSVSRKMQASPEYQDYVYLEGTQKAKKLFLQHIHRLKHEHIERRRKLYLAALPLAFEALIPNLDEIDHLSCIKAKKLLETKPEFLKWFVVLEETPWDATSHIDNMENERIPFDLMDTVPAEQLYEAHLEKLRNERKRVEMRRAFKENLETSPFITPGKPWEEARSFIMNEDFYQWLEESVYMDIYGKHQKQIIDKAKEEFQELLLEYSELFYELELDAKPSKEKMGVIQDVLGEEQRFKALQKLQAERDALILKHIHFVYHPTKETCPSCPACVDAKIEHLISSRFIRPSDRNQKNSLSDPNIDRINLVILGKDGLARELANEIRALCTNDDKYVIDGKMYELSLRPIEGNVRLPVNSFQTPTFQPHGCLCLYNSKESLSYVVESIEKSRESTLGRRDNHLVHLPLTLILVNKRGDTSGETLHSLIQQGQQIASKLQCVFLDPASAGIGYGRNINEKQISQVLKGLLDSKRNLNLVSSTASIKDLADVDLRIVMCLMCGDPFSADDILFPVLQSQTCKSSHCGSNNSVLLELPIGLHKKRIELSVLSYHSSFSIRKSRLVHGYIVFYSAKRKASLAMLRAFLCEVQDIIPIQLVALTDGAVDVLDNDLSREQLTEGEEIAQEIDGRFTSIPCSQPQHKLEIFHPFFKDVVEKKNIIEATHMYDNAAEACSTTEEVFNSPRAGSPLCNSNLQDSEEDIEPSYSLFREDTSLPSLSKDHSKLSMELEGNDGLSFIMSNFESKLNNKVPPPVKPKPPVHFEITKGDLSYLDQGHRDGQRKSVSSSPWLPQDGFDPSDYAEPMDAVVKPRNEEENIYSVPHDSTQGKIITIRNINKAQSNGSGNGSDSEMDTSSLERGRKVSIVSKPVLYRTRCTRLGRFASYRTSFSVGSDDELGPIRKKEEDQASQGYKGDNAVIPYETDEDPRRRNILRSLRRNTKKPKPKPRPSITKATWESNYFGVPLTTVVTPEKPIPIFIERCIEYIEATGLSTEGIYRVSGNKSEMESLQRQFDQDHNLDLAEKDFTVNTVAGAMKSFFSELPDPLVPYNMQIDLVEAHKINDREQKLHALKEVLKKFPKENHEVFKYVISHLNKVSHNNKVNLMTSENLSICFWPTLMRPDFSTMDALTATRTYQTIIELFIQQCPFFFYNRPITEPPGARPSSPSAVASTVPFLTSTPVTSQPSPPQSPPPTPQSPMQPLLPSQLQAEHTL
UniProt Q9NQC1, whole entry: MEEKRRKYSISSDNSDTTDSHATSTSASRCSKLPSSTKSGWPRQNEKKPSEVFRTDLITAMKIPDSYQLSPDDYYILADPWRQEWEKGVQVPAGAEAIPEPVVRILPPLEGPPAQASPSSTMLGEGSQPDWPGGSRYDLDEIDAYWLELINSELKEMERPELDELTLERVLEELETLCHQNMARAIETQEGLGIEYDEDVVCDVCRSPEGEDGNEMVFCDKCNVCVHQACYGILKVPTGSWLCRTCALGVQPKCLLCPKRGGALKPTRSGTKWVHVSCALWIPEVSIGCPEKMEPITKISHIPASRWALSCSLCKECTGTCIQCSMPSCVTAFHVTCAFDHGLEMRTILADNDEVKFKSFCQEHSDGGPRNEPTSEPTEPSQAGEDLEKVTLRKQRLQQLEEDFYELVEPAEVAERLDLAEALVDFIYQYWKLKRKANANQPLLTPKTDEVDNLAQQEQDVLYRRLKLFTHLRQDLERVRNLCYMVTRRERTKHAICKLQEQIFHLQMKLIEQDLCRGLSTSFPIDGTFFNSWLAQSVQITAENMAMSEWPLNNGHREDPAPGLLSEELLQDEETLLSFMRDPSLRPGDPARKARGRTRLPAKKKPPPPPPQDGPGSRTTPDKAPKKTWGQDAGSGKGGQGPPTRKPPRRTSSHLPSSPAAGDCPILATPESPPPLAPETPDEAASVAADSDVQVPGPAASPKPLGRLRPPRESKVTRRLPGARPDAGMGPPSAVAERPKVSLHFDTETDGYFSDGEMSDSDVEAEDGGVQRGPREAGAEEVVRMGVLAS
UniProt Q9NS91, whole entry: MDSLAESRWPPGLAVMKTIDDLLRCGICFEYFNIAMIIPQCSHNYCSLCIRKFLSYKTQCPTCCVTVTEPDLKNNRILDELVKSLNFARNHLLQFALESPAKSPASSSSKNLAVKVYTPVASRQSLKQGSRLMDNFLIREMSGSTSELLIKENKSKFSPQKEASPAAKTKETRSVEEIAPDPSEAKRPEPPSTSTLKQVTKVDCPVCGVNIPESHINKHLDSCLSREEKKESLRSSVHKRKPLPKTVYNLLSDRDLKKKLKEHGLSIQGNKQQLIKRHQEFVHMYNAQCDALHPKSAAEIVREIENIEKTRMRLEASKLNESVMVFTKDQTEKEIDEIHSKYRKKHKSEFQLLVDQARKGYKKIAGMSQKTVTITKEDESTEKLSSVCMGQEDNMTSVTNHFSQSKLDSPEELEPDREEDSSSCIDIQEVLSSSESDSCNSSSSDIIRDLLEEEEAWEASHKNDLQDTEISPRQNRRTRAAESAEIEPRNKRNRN
UniProt Q9NUY8: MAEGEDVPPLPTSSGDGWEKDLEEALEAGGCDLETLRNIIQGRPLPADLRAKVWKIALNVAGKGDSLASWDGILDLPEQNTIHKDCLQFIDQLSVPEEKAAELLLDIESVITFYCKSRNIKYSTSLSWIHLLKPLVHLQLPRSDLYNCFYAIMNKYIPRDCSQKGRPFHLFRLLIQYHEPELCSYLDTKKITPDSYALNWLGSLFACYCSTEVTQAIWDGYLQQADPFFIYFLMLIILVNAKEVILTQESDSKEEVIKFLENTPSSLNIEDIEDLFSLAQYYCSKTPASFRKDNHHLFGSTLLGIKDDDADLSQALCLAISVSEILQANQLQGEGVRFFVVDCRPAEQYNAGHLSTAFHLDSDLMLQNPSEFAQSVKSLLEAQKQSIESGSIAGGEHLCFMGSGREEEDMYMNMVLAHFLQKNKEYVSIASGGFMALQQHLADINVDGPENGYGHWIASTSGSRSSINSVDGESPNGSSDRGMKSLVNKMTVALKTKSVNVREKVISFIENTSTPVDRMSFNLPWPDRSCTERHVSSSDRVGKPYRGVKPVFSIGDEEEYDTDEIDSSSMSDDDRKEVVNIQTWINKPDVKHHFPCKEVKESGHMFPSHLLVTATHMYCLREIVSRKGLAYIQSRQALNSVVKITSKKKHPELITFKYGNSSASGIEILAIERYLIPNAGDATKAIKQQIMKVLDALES
UniProt Q9NUL3: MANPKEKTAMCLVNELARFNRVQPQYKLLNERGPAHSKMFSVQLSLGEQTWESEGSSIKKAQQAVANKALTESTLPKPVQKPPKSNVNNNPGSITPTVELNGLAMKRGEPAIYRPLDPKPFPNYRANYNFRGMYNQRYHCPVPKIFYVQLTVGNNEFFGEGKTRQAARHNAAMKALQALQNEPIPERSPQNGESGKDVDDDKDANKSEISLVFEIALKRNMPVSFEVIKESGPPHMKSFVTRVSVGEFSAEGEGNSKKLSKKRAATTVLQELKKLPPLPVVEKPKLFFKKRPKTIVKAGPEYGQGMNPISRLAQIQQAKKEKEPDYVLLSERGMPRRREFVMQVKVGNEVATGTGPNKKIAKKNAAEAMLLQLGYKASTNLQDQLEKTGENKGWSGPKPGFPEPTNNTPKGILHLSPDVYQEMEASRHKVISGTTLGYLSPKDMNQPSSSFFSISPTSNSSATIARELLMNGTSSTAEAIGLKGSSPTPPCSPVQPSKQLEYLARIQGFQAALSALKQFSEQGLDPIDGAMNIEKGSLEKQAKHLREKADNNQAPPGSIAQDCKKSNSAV
UniProt Q9NUQ9: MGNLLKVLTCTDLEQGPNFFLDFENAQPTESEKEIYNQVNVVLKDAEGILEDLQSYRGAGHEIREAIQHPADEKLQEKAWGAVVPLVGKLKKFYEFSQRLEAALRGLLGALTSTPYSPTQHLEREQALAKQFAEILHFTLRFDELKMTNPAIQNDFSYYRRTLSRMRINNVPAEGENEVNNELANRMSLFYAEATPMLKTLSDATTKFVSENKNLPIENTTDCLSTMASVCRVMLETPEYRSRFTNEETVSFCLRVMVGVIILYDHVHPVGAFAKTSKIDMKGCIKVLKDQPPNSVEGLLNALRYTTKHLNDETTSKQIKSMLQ

What follows are targets tested with Cc1nc(Nc2ncc(C(=O)Nc3c(C)cccc3Cl)s2)cc(N2CCN(CCO)CC2)n1 [dasatinib] (assay: log2 fold change of tryptic peptide abundance, ligand vs vehicle (limited proteolysis) (log2 ratio); higher = more trypsin-susceptible (destabilized)). Settings: ligand concentration: 5 uM; sample: K562 cleared lysate.

Target	log2 fold change
UniProt Q9NQ39 (peptide sequence: AMQSLKSR, peptide start residue: 48)	0.921
WDR70 (peptide sequence: QNEDIEPTSSR, peptide start residue: 76) (UniProt Q9NW82)	-0.282
CTNNBIP1 (peptide sequence: SETEDRRQ, peptide start residue: 74) (UniProt Q9NSA3)	0.673
MRPL22 (peptide sequence: SNLYIAESTSGR, peptide start residue: 132) (UniProt Q9NWU5)	0.0618
SH2B1 (peptide sequence: VGGPLAVLGPSR, peptide start residue: 113) (UniProt Q9NRF2)	0.182
FAM118A (peptide sequence: KMSPRTGDAK, peptide start residue: 97) (UniProt Q9NWS6)	-0.391
ZCCHC3 (peptide sequence: THMSGSCTQDR, peptide start residue: 342) (UniProt Q9NUD5)	0.439
FAIM (peptide sequence: TTNTWVLHMDGENFR, peptide start residue: 96) (UniProt Q9NVQ4)	0.192
SLTM (peptide sequence: AGAGMITQHSSNASPINR, peptide start residue: 989) (UniProt Q9NWH9)	-0.239
ARFGAP3 (peptide sequence: SLGVHLSFIR, peptide start residue: 55) (UniProt Q9NP61)	-0.363
ZC4H2 (peptide sequence: MAHVEELR, peptide start residue: 60) (UniProt Q9NQZ6)	0.00763
UniProt Q9NPA3 (peptide sequence: HSLFNAMNR, peptide start residue: 12)	-0.0791
KIF13B (peptide sequence: GKRPSPLAHQPVPR, peptide start residue: 1477) (UniProt Q9NQT8)	-1.02
UniProt Q9NRY4 (peptide sequence: IELSVLSYHSSFSIR, peptide start residue: 833)	0.676
JADE2 (peptide sequence: TDLITAMK, peptide start residue: 50) (UniProt Q9NQC1)	-0.0493
NRIP3 (peptide sequence: DMQPHNILQR, peptide start residue: 57) (UniProt Q9NQ35)	-0.36
RNF146 (peptide sequence: KGVAGLRLDCDANTVNLAR, peptide start residue: 176) (UniProt Q9NTX7)	-0.652
RAD18 (peptide sequence: TVTITKEDESTEK, peptide start residue: 371) (UniProt Q9NS91)	0.113
TBC1D23 (peptide sequence: NIIQGRPLPADLR, peptide start residue: 38) (UniProt Q9NUY8)	-0.314
INCENP (peptide sequence: KPEDNHTQCQLVPVVEIGISER, peptide start residue: 155) (UniProt Q9NQS7)	0.331
OLA1 (peptide sequence: LKPEYDIMCKVK, peptide start residue: 179) (UniProt Q9NTK5)	0.363
STAU2 (peptide sequence: HKVISGTTLGYLSPK, peptide start residue: 428) (UniProt Q9NUL3)	-0.321
SDR39U1 (peptide sequence: WNETFQK, peptide start residue: 70) (UniProt Q9NRG7)	0.347
UniProt Q9NVA2 (peptide sequence: EAELKEAEKELHEK, peptide start residue: 353)	-0.119
FAM49B (peptide sequence: VMVGVIILYDHVHPVGAFAK, peptide start residue: 256) (UniProt Q9NUQ9)	0.0819
PRDM10 (peptide sequence: LCMMGFR, peptide start residue: 731) (UniProt Q9NQV6)	0.164

2 entries picked at random from those above, as already listed:
Target	log2 fold change
SLTM (peptide sequence: AGAGMITQHSSNASPINR, peptide start residue: 989) (UniProt Q9NWH9)	-0.239
FAIM (peptide sequence: TTNTWVLHMDGENFR, peptide start residue: 96) (UniProt Q9NVQ4)	0.192
